Data reported in PMC7819943, “Rice protein-binding microarrays: a tool to detect cis-acting elements near promoter regions in rice”.
The list shows a part of the results.

By UniProt entry, the sequences of proteins in these tests, tags left out.
UniProt Q0JBA9, entry or part of it: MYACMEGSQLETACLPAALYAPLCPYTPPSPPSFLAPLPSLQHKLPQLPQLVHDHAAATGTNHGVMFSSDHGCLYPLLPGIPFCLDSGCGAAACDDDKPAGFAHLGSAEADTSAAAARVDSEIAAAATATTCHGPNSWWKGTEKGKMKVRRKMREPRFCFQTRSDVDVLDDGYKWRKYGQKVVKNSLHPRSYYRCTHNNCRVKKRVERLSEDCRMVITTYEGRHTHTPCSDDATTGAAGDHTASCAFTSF

target: OsWRKY34 (Oryza sativa, UniProt Q0JBA9 1-250); assay: protein-binding microarray (RPBM); PBS, 2% BSA, 51.3 ng/ul salmon testes DNA, 50 uM zinc acetate, 200 nM TF, 25 C, 1 h; high values mean tight binding; settings: protein: recombinant; tags: N-terminal polyhistidine and DsRed monomer fusion (pET32a); label: CyDye5-dUTP incorporated in the synthesized complementary strand; 3' TTTTT single-stranded linker to array surface; dsDNA, one strand shown
Outline: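 Ni–NTA purification followed expression in E. coli BL21-CodonPlus of transcription factors fused N-terminally to a polyhistidine tag and DsRed. At 200 nM in PBS with 2% BSA, salmon testes DNA and 50 µM zinc acetate, the protein was incubated for 1 h at 25 °C with a custom Agilent array that had been primer-extended with Cy5-dUTP and blocked with 2% BSA. After washing, the array was read on an Axon 4000B scanner. The binding signal is per-feature fluorescence intensity in arbitrary units.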

| Sequence | binding signal |
| --- | --- |
| GCCAGCTAAGACAATGACCATTTACCTACAGATACTATTCCGGAGTCACCTAGTGCAG | 9190 fluorescence intensity (a.u.) |
| GTAGCTCGTCGTCACTGCCCATAGTACTCTGGCTTAGCTACGGAGTCACCTAGTGCAG | 8030 fluorescence intensity (a.u.) |
| TTCCTCCCTCGCCTCTTCGCGCCGGCGAGGTCCCACCTTCCGGAGTCACCTAGTGCAG | 8850 fluorescence intensity (a.u.) |
| CCTTTTCCTTTTTATTACATTATATCGTTGTCTTTTTCTACGGAGTCACCTAGTGCAG | 9960 fluorescence intensity (a.u.) |
| TGTACCGGCAGCAGGACCCGTTATTCCTGGCGTCGCGCGTCGGAGTCACCTAGTGCAG | 8040 fluorescence intensity (a.u.) |
| CTCTTGCTGTGTCTTGCGCCGATCCGTCTTTGGTCTCTGCCGGAGTCACCTAGTGCAG | 11400 fluorescence intensity (a.u.) |
| TCTCCCTTCCTGCGACTTCGTTTCGTTTTGGGTTCGTTTTCGGAGTCACCTAGTGCAG | 11700 fluorescence intensity (a.u.) |
| CGCACCAAACGCACACACCGCGCGCGTCGGCGGCCATGGCCGGAGTCACCTAGTGCAG | 8190 fluorescence intensity (a.u.) |
| TTTTGCCCTCTAAGATGCACTTTTCTCTGTTTGTTTCAACCGGAGTCACCTAGTGCAG | 8140 fluorescence intensity (a.u.) |
| GCTGACGTGGCCAGCTGATATGTGGGTCTCAAGCTGACTCCGGAGTCACCTAGTGCAG | 9490 fluorescence intensity (a.u.) |
| TAAACTTTACATCTCATCCTATAGTTGTTTTCATCGTTGCCGGAGTCACCTAGTGCAG | 9170 fluorescence intensity (a.u.) |
| ATGCAATTGTTCTGTTACTGTAGTTCCTCTCTGTTTTGTTCGGAGTCACCTAGTGCAG | 10400 fluorescence intensity (a.u.) |
| CTCTCTCTCTGCTGCTGCTCTCTAATCAGTAACCAGTAGTCGGAGTCACCTAGTGCAG | 9580 fluorescence intensity (a.u.) |
| ATCTGTATTTTTGTCGGTTCTTAAGATCGTTCAGTTTTGGCGGAGTCACCTAGTGCAG | 9820 fluorescence intensity (a.u.) |
| CCTCGTTCTTACCATCTCCTCCACCATCCTTATCCTTATCCGGAGTCACCTAGTGCAG | 8510 fluorescence intensity (a.u.) |
| CGCGCCACCAGCTCATCATTGTCGACCAATCTTCTTTTCTCGGAGTCACCTAGTGCAG | 10100 fluorescence intensity (a.u.) |
| CACGACATGTTCTGGATGGTTTCTTTTGCGACATATTTTCCGGAGTCACCTAGTGCAG | 8030 fluorescence intensity (a.u.) |
| ACCACCACCACCGCCGCCGCGCGGACCAACCAACCAATCACGGAGTCACCTAGTGCAG | 11400 fluorescence intensity (a.u.) |
| ACCCCACGTACACCCCATGCTTCGTGACCGTGTGAGCTCTCGGAGTCACCTAGTGCAG | 8020 fluorescence intensity (a.u.) |
| AGGTGGTGTTTGGTTGGAGGGGCTAAAGTGGGGCTAAACTCGGAGTCACCTAGTGCAG | 20000 fluorescence intensity (a.u.) |
| CACTGAGCCCGCATCGTCTCGTCTCCCTCTCCCTCTCCCACGGAGTCACCTAGTGCAG | 8430 fluorescence intensity (a.u.) |
| GTCTATGGTTCTCGCGTGGTGCCGAGCCGCGTCCCTTTTTCGGAGTCACCTAGTGCAG | 12400 fluorescence intensity (a.u.) |
| GTTCTTTTCTTTAGCTCCAAAATACAAATTCCTCATTTTTCGGAGTCACCTAGTGCAG | 11000 fluorescence intensity (a.u.) |
| CCACCCACCACTTCTTCTCTACCTAGCTCTCTCTTTCTCGCGGAGTCACCTAGTGCAG | 8210 fluorescence intensity (a.u.) |
| GTTTTACACTATTCACGTTCAACGTTTGACCGTTCGTCTTCGGAGTCACCTAGTGCAG | 13400 fluorescence intensity (a.u.) |
| TAGGGTTAGGGTTTGCTCCTCCTCCTCTTCCCTCTACACGCGGAGTCACCTAGTGCAG | 8990 fluorescence intensity (a.u.) |
| GCCTTTCTGTTTCAGTAGTCCTCTCTTTGACGCTTTACTCCGGAGTCACCTAGTGCAG | 11600 fluorescence intensity (a.u.) |

| Sequence | binding signal |
| --- | --- |
| GGTTTTCCATGCCCTCTATCGTTCCAAATTCTCTTAAGATCGGAGTCACCTAGTGCAG | 8100 fluorescence intensity (a.u.) |
| CCAACAAATTTTGTGTGACTACAACCTGCCTACAACCTGTCGGAGTCACCTAGTGCAG | 8790 fluorescence intensity (a.u.) |
| TTGAACTGTATTGGTTTTGGTTAGTCTTCTAGTTTGTTATCGGAGTCACCTAGTGCAG | 8100 fluorescence intensity (a.u.) |
| AGTTGTTGCCTGCACTACACAGCTGATGCACTGCCGGTTCCGGAGTCACCTAGTGCAG | 8640 fluorescence intensity (a.u.) |
| GCACCCTACCGTAAAAAGTCAACAGTAGCCATTCCACACACGGAGTCACCTAGTGCAG | 9880 fluorescence intensity (a.u.) |
| GGTGTAGGTGCTGTTACTATTGGAGACTAGACTCAATGTGCGGAGTCACCTAGTGCAG | 8420 fluorescence intensity (a.u.) |
| TATATTTTCCATCCCTTGTACGCATATATGCCCTTTAGGCCGGAGTCACCTAGTGCAG | 9070 fluorescence intensity (a.u.) |
| GACAACTTGAAATATATATTTTTATTCTCGTTTAGGACTCCGGAGTCACCTAGTGCAG | 8590 fluorescence intensity (a.u.) |
| GCTCTTCGACGTGAAGCCGCTCCAGCACCTGCAGCTCCCGCGGAGTCACCTAGTGCAG | 8210 fluorescence intensity (a.u.) |
| CTATCTTTCGCTGTTGCTGTTTGAGAAGTGTTTTAATTATCGGAGTCACCTAGTGCAG | 8570 fluorescence intensity (a.u.) |
| GTTTGTTCATCGGCCAGCTAGCTATACCTGCAGGTAGCTCCGGAGTCACCTAGTGCAG | 8460 fluorescence intensity (a.u.) |
| TGGTCCATTTCCAGCGTGAAGCTGGTCGTACTCGTAGTCGCGGAGTCACCTAGTGCAG | 11400 fluorescence intensity (a.u.) |
| GCATTTTTTTTTACTCTGGCACGGTCTCCGAGATGCTACTCGGAGTCACCTAGTGCAG | 10300 fluorescence intensity (a.u.) |
| GATATCCCCTTAGAGTTTAATCCACTCTCGAGCTTAATTCCGGAGTCACCTAGTGCAG | 8760 fluorescence intensity (a.u.) |
| AGGGGTTCGCTTTTCTAGATTCAGTCTGTCAGCGGCGACGCGGAGTCACCTAGTGCAG | 9570 fluorescence intensity (a.u.) |
| GTTGGATATAGTGGTTTATGCGTAGTTTTGCTCCACAGGTCGGAGTCACCTAGTGCAG | 9410 fluorescence intensity (a.u.) |
| AACATGTACCTTCGTTTTCTTTTAGCCTCACATGATAGTACGGAGTCACCTAGTGCAG | 8840 fluorescence intensity (a.u.) |
| ATGTGCACTTATGCATCTATAATCTCTGTCGTGTATTTTTCGGAGTCACCTAGTGCAG | 10100 fluorescence intensity (a.u.) |
| ATATGTCAAGTTTGGTGGATATAGTTGTTTGGCCTTTTACCGGAGTCACCTAGTGCAG | 11700 fluorescence intensity (a.u.) |
| ATGCCTTCCATTGAGCAGTTCGGTGTTCCGCCGTTGACTTCGGAGTCACCTAGTGCAG | 13500 fluorescence intensity (a.u.) |
| ACCCTGTCCCTGTCCTGTAGCCATCACCAGTCTTATTATTCGGAGTCACCTAGTGCAG | 13100 fluorescence intensity (a.u.) |
| ATATAGACGGTTACTTTTTTTTGTGTAGTGCTGGAGAAATCGGAGTCACCTAGTGCAG | 8810 fluorescence intensity (a.u.) |
| AATGGCGACCCAAAACCGGGGTACTGTATCGAAATTCAAACGGAGTCACCTAGTGCAG | 8450 fluorescence intensity (a.u.) |
| AGATTAATTTCATTTCTATCTTCCTGTCTAACCTCAGTTCCGGAGTCACCTAGTGCAG | 8570 fluorescence intensity (a.u.) |
| CCTCTGTTCCAGCCCATACACCCGACCTGCTGAGATACAACGGAGTCACCTAGTGCAG | 8370 fluorescence intensity (a.u.) |
| AATTACACTTTTTTGGATGTCCTGTAACAAATTTTGCGGACGGAGTCACCTAGTGCAG | 8220 fluorescence intensity (a.u.) |
| CTCCCAACCGAAGCGGCCTATATTAGCGTGTAATTAATTACGGAGTCACCTAGTGCAG | 9180 fluorescence intensity (a.u.) |

Retrieved one by one from the list above:

| Sequence | binding signal |
| --- | --- |
| ATATGTCAAGTTTGGTGGATATAGTTGTTTGGCCTTTTACCGGAGTCACCTAGTGCAG | 11700 fluorescence intensity (a.u.) |
| GCATTTTTTTTTACTCTGGCACGGTCTCCGAGATGCTACTCGGAGTCACCTAGTGCAG | 10300 fluorescence intensity (a.u.) |
